According to patent publication US6465254, “Mutant loxP site and applications thereof” (Sumitomo Pharmaceuticals Company, Limited):
Where a protein sequence is shown, tags need not be part of it.

Target: T1, Cre recombinase (UniProt P06956)
T1 sequence (looked up, limits assumed): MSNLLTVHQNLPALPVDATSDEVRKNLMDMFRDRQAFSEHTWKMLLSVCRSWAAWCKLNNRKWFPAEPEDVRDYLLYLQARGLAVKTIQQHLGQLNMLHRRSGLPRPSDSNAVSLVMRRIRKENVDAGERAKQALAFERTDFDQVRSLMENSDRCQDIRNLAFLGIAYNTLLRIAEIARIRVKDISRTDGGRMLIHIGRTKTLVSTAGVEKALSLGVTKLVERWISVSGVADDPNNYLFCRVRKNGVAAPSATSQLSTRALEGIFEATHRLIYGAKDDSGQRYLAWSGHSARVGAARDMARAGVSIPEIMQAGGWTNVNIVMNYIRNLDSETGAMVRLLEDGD
Test: activity assay
Settings: intermediate 0, protein in a lysate after overexpression, variant of wild-type loxP, counted as no effect

Sequence | activity on this sequence (grade 0-9 final product) (with wt loxP) | activity on this sequence (grade 0-9 final product) (self x self)
ATAACTTCGTATAATGTTTCCTATACGAAGTTAT (double strand) [mutant loxP #5272] | 0 | –
ATAACTTCGTATAATATATCCTATACGAAGTTAT (double strand) [mutant loxP #3172] | – | 0
ATAACTTCGTATAACGTATACTATACGAAGTTAT (double strand) [mutant loxP #2171] | 0 | –
ATAACTTCGTATAATATATACTATACGAAGTTAT (double strand) [mutant loxP #3171] | 0 | –
ATAACTTCGTATAATGTGTACTATACGAAGTTAT (double strand) [mutant loxP #5171] | 0 | –
ATAACTTCGTATAAAGTATCCTATACGAAGTTAT (double strand) [mutant loxP #2272] | 0 | –
ATAACTTCGTATAATGCATACTATACGAAGTTAT (double strand) [mutant loxP #4171] | 0 | –
